Measurements as given in PMC10571540.

Chains of the proteins cited; added tags and fusions are not shown. Lines headed by an entry give the natural chain unless they say otherwise; changes in a name come on top. Residues count along the entry.
UniProt Q8NBJ9: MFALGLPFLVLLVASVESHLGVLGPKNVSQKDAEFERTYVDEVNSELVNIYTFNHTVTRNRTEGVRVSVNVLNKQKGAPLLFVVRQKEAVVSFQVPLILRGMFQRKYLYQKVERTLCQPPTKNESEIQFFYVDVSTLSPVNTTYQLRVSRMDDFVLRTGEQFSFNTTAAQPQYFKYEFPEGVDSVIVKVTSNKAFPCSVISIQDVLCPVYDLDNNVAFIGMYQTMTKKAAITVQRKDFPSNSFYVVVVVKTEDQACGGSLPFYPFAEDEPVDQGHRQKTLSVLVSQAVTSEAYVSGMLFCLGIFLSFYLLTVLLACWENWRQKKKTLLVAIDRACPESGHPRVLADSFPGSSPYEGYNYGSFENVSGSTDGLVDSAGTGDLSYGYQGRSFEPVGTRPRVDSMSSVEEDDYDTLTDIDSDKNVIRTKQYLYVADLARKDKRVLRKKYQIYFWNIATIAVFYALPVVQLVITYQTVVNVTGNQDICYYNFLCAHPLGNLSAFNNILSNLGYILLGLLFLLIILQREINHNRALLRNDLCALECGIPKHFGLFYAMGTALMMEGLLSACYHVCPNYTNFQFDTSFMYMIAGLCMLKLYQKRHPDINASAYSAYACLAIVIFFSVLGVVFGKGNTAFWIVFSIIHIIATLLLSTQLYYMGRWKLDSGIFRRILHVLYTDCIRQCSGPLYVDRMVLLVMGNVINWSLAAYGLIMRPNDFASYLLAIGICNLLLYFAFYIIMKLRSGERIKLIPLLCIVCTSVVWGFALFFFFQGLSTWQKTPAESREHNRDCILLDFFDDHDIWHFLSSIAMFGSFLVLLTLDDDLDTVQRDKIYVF
UniProt P02647, residues 19-267: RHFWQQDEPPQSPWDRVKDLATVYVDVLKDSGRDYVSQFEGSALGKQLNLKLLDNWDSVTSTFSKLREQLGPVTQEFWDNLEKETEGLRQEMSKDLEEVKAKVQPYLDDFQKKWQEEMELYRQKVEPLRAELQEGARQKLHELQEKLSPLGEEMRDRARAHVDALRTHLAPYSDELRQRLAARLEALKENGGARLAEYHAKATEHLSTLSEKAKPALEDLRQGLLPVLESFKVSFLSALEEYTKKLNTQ

Target: SIDT2-mut-GFP (SIDT2 with tyrosine 650 replaced by alanine, CRAC-2 motif disrupted) (human) (UniProt Q8NBJ9)
Assay: co-IP; HEK293 cell extracts of co-transfected cells; SIDT2-GFP immunoprecipitated with an anti-GFP antibody; SIDT2 and ApoA1 detected by Western blot

binding: no binding
Substance: ApoA1 (expressed in HEK293 cells for co-immunoprecipitation) (from UniProt P02647 19-267)

These are yes or no findings as the source states them, for the method shown. Binding seen in cells or lysates may run through a third protein.
